In the assay the target is S9ecto-Fc (human siglec9 ectodomain fused with human Fc domain) (human) (UniProt Q9Y336). Put plainly: ELISA. In general terms: In an ELISA, binding on a coated surface is turned into a signal by an enzyme label.

Sequences of proteins named here, by UniProt entry; tags and fusion partners are left off. Residues count along the entry.
UniProt Q9Y336, residues 18-348: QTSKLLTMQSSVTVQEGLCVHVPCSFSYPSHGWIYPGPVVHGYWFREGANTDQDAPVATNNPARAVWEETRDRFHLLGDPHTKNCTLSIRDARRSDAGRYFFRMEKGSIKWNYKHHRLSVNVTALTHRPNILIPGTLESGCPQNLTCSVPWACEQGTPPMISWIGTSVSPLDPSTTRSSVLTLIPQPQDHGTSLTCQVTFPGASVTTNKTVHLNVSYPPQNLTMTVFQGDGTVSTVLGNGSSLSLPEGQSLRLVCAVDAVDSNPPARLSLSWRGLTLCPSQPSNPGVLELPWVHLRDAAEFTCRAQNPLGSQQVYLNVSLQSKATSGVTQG

These are yes or no findings as the source states them, for the method shown.

B1: S0057 (antibody, V domains shown)
VH: QGQLVQSGAEVKKPGASVKVSCKASGYTFNNYGISWVRQAPGQGLEWMGWISAYNGFTRSTQKFQGRVTLTTDTSTSTAHMELRSLRSDDTAAYYCARDGGDGFDPWGQGTLVTVSS
VL: EIVLTQSPATLSLSPGERATLSCRASQSVSSFLAWYQQKPGQAPRLLIFDASNRATGIPARFSGSGSGTDFTLTISSLEPEDFAVYYCQQRSNWITFGQGTRLEIKRA
Take B1: the binding result is on record as “no binding (tested: A450>0.09 (so in the source))”.

The record behind these values is patent US20250019432A1.
